# Test results published in PubChem BioAssay AID493014 (National Center for Advancing Translational Sciences (NCATS), 2011).
# The other results are listed elsewhere or left out. These are further read-outs of the screen, such as a control signal, another cell line or another target. No call is given for them. Most of these compounds were active or inconclusive in the main read-out, so they are no random draw. Words in brackets tell the shape of the fitted curve; partial curves, single points and poor fits give uncertain potencies.
# Assay: qHTS Assay to Find Inhibitors of Chronic Active B-Cell Receptor Signaling
# Conditions: ABC-DLBCL IkBa-CBG/CBR reporter, luminescence ratio (green luciferase fused to IkBa over red control in TMD8 lymphoma cells), 4 h
# Summary of the method: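 Doxycycline induced both beetle luciferases in TMD8 lymphoma cells; IKK-driven degradation limits the IkappaBalpha-fused green signal, while red luminescence normalises for cell number and nonspecific effects. Compounds tested up to 46 uM, 4 hrs.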
# [1] = measured here: CBR red luminescence, cell number
# [2] = measured here: IkBa-CBG green luminescence
smiles,measurement,setting,value
O=C(Nc1ccccc1N1CCCC1)c1ccc(Cl)c(S(=O)(=O)N2CCOCC2)c1,AC50,[1],"6.51 µM [rising, single point]"
Cc1cc(C)cc(Nc2ncnc3nc[nH]c23)c1,AC50,[1],"11.2 µM [falling, partial curve, poor fit]"
C(=N\N1CCOCC1)/c1cccs1,AC50,[1],"29.1 µM [rising, single point]"
Cc1cc(C)c(NC(=O)COC(=O)c2cccc3c2C(=O)c2ccccc2C3=O)c(C)c1,AC50,[2],"2.31 µM [falling, partial curve, poor fit]"
CC(=O)Nc1ccc(NC(=O)Cc2ccc(-c3ccccc3)cc2)cc1,AC50,[1],"20 µM [falling, single point]"
CCC(=O)N1CCN(c2nc(CC)nc3sc4c(c23)CCCC4)CC1,AC50,[1],"8.91 µM [falling, partial curve]"
CCOC(=O)C1(CC2CC2)CCN(S(=O)(=O)C[C@]23CC[C@H](CC2=O)C3(C)C)CC1,AC50,[1],"35.5 µM [rising, partial curve, poor fit]"
O=C(NC1(O)C(=O)c2ccccc2C1=O)c1c(Cl)cccc1Cl,AC50,[1],"11.2 µM [rising, partial curve, poor fit]"
COCCN(CC(=O)Nc1ccccc1C(F)(F)F)C(=O)c1ccc(-n2cccn2)cc1,AC50,[1],"16.4 µM [rising, partial curve, poor fit]"
CC1CCCN(C(=O)COC(=O)c2n[nH]c3ccccc23)C1 (stereo not given),AC50,[1],"20 µM [falling, single point]"
Cc1nnc(NC(=O)c2ccc(S(=O)(=O)C(F)F)cc2)s1,AC50,[1],"3.16 µM [rising, partial curve, poor fit]"
CC1CN(CCCCOc2ccc3ccccc3c2)CC(C)O1 (stereo not given),AC50,[1],"11.6 µM [rising, partial curve, poor fit]"
Cc1cc(C(=O)CSc2nnc(N)s2)c(C)n1Cc1cccs1,AC50,[1],"0.164 µM [rising, full curve, poor fit]"
COC(=O)c1ccc(NC(=O)c2ccccc2CC[N+](=O)[O-])cc1,AC50,[1],"3.55 µM [falling, full curve]"
COC(=O)COc1ccc(=O)n(-c2ccccc2)n1,AC50,[1],"0.731 µM [rising, full curve, poor fit]"
CCOC(=O)C1(N(CC)CC)Sc2cc(C)ccc2NC1=O (stereo not given),AC50,[1],"22.4 µM [falling, partial curve, poor fit]"
C[C@H](CO)N1C[C@H](C)[C@@H](CN(C)S(=O)(=O)c2ccc(F)cc2)Oc2ccc(NC(=O)C3CC3)cc2C1=O,AC50,[1],"18.4 µM [rising, single point]"
O=C(Nc1cccc(S(=O)(=O)N2CCCCC2)c1)c1ccccc1NS(=O)(=O)c1ccc(F)cc1,AC50,[1],"2.31 µM [falling, full curve]"
CCCCC(=O)Nc1nc(C)c(-c2csc(Nc3ccc(Cl)cc3)n2)s1,AC50,[1],"0.708 µM [rising, partial curve]"
O=C(NN=C1CCCCCCCCCCC1)c1ccncc1,AC50,[1],"35.5 µM [falling, single point]"
CCOC(=O)N1CCC(Nc2c(NCCN3CCN(c4cccc(Cl)c4)CC3)c(=O)c2=O)CC1,AC50,[1],"1.46 µM [rising, partial curve, poor fit]"
COc1ccc(CCNC(=O)CSc2nnc3ccc(-c4ccncc4)nn23)cc1,AC50,[1],"20 µM [rising, single point]"
COc1ccc2cc(C[C@@H]3CC[C@@H](CO)O3)ccc2c1,AC50,[1],"11.6 µM [rising, partial curve, poor fit]"
CCn1ccc(C(=O)N2CCOCC2)n1,AC50,[1],"3.98 µM [rising, full curve, poor fit]"
CC(C)CNc1oc(-c2ccc(F)cc2)nc1C#N,AC50,[1],"6.51 µM [rising, single point]"
CCOC(=O)c1c(-c2ccc(C)cc2)csc1NC(=O)c1cc2ccccc2oc1=O,AC50,[1],"35.5 µM [rising, single point]"
same,AC50,[2],"35.5 µM [falling, single point]"
O=c1c2ccccc2nc(SCc2ccccc2F)n1C1CCCC1,AC50,[1],"5.8 µM [rising, single point]"
O=C(CS(=O)(=O)c1ccccc1)c1cc2cc(F)ccc2oc1=O,AC50,[1],"35.5 µM [falling, single point]"
COc1ccccc1NC(=O)COC(=O)Cc1ccc(S(=O)(=O)N2CCCCC2)s1,AC50,[1],"2.51 µM [rising, full curve, poor fit]"
Cc1cc(=O)c2ccccc2s1,AC50,[1],"3.16 µM [falling, single point]"
CCc1ccc(-c2cc(N)n(-c3ccccc3)n2)cc1,AC50,[1],"2.51 µM [rising, partial curve, poor fit]"
O=C(O)CCCCCNc1ccc2nsnc2c1[N+](=O)[O-],AC50,[1],"20.6 µM [falling, single point]"
CC(Sc1n[nH]c(=O)n1Cc1ccccc1)C(=O)NC1CCCCC1C (stereo not given),AC50,[1],"20.6 µM [falling, partial curve, poor fit]"
CC1CCCN(C(=O)C2CCN(c3nc(-c4ccccc4)nc4c3CCC4)CC2)C1 (stereo not given),AC50,[1],"20 µM [falling, partial curve, poor fit]"
Cn1c(=O)c([N+](=O)[O-])c(NCC(O)c2ccccc2)c2ccccc21 (stereo not given),AC50,[1],"0.00461 µM [rising, full curve, poor fit]"
CC(C)[C@H](NC(=O)N1CCn2c1nc1ccccc12)C(=O)NCc1ccc(F)cc1,AC50,[1],"10 µM [falling, partial curve]"
CC(C)(CNC(=O)c1ccc([N+](=O)[O-])c(Cl)c1)CNC(=O)c1ccc([N+](=O)[O-])c(Cl)c1,AC50,[1],"3.98 µM [falling, full curve]"
O=C(COC(=O)CNC(=O)c1ccccc1)NCc1ccc2c(c1)OCO2,AC50,[1],"4.11 µM [rising, single point]"
Cc1ccc(-n2nc(C)cc2N)c(C)c1,AC50,[1],"35.5 µM [rising, single point]"
CC(C)n1c(=S)[nH]c2cc(Cl)ccc21,AC50,[1],"3.55 µM [rising, partial curve, poor fit]"
Cc1cccc(OCC(=O)N/N=C/c2sc(=O)n(Cc3cccc(C(=O)O)c3)c2Cl)c1,AC50,[1],"0.631 µM [falling, full curve, poor fit]"
N#CC1=C(N)Oc2n[nH]c(-c3ccc(F)cc3)c2C1c1cccc(OC(=O)N2CCOCC2)c1 (stereo not given),AC50,[1],"5.17 µM [falling, partial curve, poor fit]"
CC(C)C(C(=O)Nc1ccc2c(c1)OCCO2)N1C(=O)c2ccccc2C1=O (stereo not given),AC50,[1],"20.6 µM [rising, single point]"
O=C(CCCN1C(=O)NC2(CCCC2)C1=O)Nc1ccc(F)cc1,AC50,[1],"16.4 µM [falling, partial curve, poor fit]"
COc1ccc2c(c1)CCC/C2=N\Nc1nc(C(=O)NN)cs1,AC50,[1],"6.31 µM [falling, full curve, poor fit]"
COC(=O)CN1C(=O)N(c2ccccc2)C(N(O)C(=O)Nc2ccccc2)C1(C)C (stereo not given),AC50,[1],"0.355 µM [rising, full curve]"
COc1cc(C(=O)N/N=C/c2ccc(OC)c(CN3CCN(c4ccc(F)cc4)CC3)c2)ccc1O,AC50,[1],"8.91 µM [falling, partial curve, poor fit]"
COc1ccc(NC(=O)CSc2nnc(C3CCCCC3)n2N)cc1OC,AC50,[1],"12.6 µM [falling, single point]"
O=C(Nc1cccc(F)c1)/C(=C\c1ccco1)NC(=O)c1cccs1,AC50,[1],"35.5 µM [falling, single point]"
CCCC(=O)Nc1nc2c(c(=O)[nH]1)CCCC2,AC50,[1],"23.1 µM [falling, single point]"
CCSc1nc(N)c2c3c(sc2n1)CCC3,AC50,[1],"2.24 µM [rising, full curve, poor fit]"
O=C(CSc1nnc(-c2ccncc2)n1CC1CCCO1)Nc1ccccc1Cl (stereo not given),AC50,[1],"0.794 µM [rising, partial curve, poor fit]"
CC(=O)Nc1ccc(C(=O)Nc2nnc(CCc3ccccc3)s2)cc1,AC50,[1],"10 µM [falling, partial curve, poor fit]"
CCCCNC(=S)NNC(=O)c1csc(CC)c1,AC50,[1],"4.11 µM [rising, single point]"
Cc1c(OCc2ccc(C(=O)O)o2)ccc2c3c(c(=O)oc12)CCC3,AC50,[1],"3.55 µM [falling, partial curve]"
Cc1ccc(S(=O)(=O)N(C)C)cc1NC(=O)CN1C(=O)NC(Cc2c[nH]c3ccccc23)C1=O (stereo not given),AC50,[1],"22.4 µM [falling, single point]"
CN(C)S(=O)(=O)c1cccc(NC(=O)CC23CC4CC(CC(C4)C2)C3)c1,AC50,[1],"17.8 µM [falling, single point]"
CN1C/C(=C/c2ccncc2)C(=O)/C(=C/c2ccncc2)C1,AC50,[1],"4.47 µM [falling, partial curve, poor fit]"
O=C(Nc1nnc(-c2ccccc2)o1)c1cccc(S(=O)(=O)N2CCOCC2)c1,AC50,[1],"18.4 µM [falling, partial curve]"
CCCn1c(SCC(=O)O)nc2ccccc21,AC50,[1],"0.517 µM [rising, partial curve, poor fit]"
CC1CCCCN1CC(=O)Nc1ccc(Oc2ccccc2)cc1 (stereo not given),AC50,[1],"1.16 µM [rising, full curve, poor fit]"
Clc1ccc(CCNc2nc3ccccc3n3nnnc23)cc1,AC50,[1],"11.2 µM [falling, partial curve]"
CC(C)(C)c1nnc(N/N=C/c2cc(Br)ccc2O)n(N)c1=O,AC50,[1],"3.66 µM [falling, partial curve, poor fit]"
Cc1ccccc1NS(=O)(=O)c1ccc2[nH]cc(C(=O)N(C)Cc3ccco3)c(=O)c2c1,AC50,[1],"20 µM [falling, partial curve, poor fit]"

# In another format: entries from further up
smiles | measurement | setting | value
O=C(Nc1ccccc1N1CCCC1)c1ccc(Cl)c(S(=O)(=O)N2CCOCC2)c1 | AC50 | [1] | 6.51 µM [rising, single point]
O=C(Nc1nnc(-c2ccccc2)o1)c1cccc(S(=O)(=O)N2CCOCC2)c1 | AC50 | [1] | 18.4 µM [falling, partial curve]
